{"source": "paper PMC7717712", "about": "“The effects of cardiac drugs on human erythrocyte carbonic anhydrase I and II isozymes” (Journal of Enzyme Inhibition and Medicinal Chemistry, 2020)", "origin": "cited, not measured here", "test_system": "aldehyde oxidase", "details": "read-out: aldehyde oxidase inhibition (concentration printed without endpoint name); cited from earlier work", "data": [{"smiles": "CCCNCC(O)COc1ccccc1C(=O)CCc1ccccc1", "note": "(stereo not shown) [Propafenone]", "values": [{"measurement": "IC50", "value": 2.5, "unit": "µM"}]}]}
